In PMC2994903:
No constants are given. Whether binding was seen depends on the method and setting. Binding seen in cells or lysates may run through a third protein. For part of these data: Binding can be weak; no strength is given.

Amino acid sequences for entries named in this document (tags omitted). A change or cut given only in a name is not applied to a line headed by its entry.
UniProt P09496: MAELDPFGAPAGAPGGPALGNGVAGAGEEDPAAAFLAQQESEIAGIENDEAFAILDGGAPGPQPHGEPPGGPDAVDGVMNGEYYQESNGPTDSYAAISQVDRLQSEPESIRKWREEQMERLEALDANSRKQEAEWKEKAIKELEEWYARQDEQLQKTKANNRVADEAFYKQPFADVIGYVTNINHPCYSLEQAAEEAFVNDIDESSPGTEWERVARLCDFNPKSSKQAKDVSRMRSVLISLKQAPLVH
UniProt Q9UI95: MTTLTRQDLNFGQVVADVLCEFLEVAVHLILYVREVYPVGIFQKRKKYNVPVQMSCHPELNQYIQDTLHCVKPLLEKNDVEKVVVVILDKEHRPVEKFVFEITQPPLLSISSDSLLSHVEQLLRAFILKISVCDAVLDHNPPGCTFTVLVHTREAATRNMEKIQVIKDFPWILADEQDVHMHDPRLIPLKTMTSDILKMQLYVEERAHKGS

Tests used:
[1] = target: endogenous clathrin light chain A (CLTA) (human (endogenous in U2OS)) (UniProt P09496); assay: co-IP; endogenous proteins, U2OS cells 12 h after release from a double thymidine block (majority in G2 and/or M); IP with anti-CLTA or control mouse IgG, blot with anti-MAD2B
[2] = target: endogenous clathrin light chain A (CLTA) (human (endogenous in U2OS)) (UniProt P09496); assay: condition: only cells at t = 0 of the double thymidine block (S phase); co-IP; endogenous proteins, U2OS cells at t = 0 of the double thymidine block (majority in S phase); IP with anti-CLTA, blot with anti-MAD2B
[3] = target: endogenous clathrin light chain A (CLTA) (human (endogenous in U2OS)) (UniProt P09496); assay: co-IP; endogenous proteins, unsynchronized U2OS cells (majority in G0 and/or G1); IP with anti-CLTA, blot with anti-MAD2B

- binding [1]: binds
- binding [2]: no binding
- binding [3]: no binding (only unsynchronized cells)
Substance: endogenous MAD2B (from UniProt Q9UI95 1-211)
